Results are given in words; binding and its absence hold for the method and conditions named. In cells and extracts the contact can be indirect. Some binding calls cover weakened binding; strength is not graded here. For some assays here: Tags and fused reporters may be left off the sequences shown.
Legend:
[1] = target: T1, Flag-menin (in LX2 cells) (UniProt O00255); test: co-IP; anti-Flag magnetic beads; LX2 cells transfected with Flag-menin and treated with TGF-β (10 ng/ml) for 48 h; blot for Flag, SETD2, PPARγ
T1 sequence: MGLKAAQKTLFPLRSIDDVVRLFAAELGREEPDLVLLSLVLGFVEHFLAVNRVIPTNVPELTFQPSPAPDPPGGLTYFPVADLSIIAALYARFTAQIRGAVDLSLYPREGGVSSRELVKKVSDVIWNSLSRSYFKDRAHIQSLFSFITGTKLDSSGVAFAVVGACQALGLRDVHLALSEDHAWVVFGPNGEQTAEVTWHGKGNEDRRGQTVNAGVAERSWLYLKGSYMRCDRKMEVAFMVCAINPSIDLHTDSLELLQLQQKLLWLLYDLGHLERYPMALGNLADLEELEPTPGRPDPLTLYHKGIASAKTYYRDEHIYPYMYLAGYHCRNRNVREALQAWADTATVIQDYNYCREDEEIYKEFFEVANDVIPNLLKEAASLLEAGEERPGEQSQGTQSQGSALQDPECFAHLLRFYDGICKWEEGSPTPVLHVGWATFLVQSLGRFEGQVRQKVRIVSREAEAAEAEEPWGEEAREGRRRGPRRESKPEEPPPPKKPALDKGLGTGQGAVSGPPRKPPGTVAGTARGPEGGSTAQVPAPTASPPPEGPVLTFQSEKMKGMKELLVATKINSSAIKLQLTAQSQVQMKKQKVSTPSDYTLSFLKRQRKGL

Chains of the proteins cited; added tags and fusions are not shown.
UniProt Q9BYW2: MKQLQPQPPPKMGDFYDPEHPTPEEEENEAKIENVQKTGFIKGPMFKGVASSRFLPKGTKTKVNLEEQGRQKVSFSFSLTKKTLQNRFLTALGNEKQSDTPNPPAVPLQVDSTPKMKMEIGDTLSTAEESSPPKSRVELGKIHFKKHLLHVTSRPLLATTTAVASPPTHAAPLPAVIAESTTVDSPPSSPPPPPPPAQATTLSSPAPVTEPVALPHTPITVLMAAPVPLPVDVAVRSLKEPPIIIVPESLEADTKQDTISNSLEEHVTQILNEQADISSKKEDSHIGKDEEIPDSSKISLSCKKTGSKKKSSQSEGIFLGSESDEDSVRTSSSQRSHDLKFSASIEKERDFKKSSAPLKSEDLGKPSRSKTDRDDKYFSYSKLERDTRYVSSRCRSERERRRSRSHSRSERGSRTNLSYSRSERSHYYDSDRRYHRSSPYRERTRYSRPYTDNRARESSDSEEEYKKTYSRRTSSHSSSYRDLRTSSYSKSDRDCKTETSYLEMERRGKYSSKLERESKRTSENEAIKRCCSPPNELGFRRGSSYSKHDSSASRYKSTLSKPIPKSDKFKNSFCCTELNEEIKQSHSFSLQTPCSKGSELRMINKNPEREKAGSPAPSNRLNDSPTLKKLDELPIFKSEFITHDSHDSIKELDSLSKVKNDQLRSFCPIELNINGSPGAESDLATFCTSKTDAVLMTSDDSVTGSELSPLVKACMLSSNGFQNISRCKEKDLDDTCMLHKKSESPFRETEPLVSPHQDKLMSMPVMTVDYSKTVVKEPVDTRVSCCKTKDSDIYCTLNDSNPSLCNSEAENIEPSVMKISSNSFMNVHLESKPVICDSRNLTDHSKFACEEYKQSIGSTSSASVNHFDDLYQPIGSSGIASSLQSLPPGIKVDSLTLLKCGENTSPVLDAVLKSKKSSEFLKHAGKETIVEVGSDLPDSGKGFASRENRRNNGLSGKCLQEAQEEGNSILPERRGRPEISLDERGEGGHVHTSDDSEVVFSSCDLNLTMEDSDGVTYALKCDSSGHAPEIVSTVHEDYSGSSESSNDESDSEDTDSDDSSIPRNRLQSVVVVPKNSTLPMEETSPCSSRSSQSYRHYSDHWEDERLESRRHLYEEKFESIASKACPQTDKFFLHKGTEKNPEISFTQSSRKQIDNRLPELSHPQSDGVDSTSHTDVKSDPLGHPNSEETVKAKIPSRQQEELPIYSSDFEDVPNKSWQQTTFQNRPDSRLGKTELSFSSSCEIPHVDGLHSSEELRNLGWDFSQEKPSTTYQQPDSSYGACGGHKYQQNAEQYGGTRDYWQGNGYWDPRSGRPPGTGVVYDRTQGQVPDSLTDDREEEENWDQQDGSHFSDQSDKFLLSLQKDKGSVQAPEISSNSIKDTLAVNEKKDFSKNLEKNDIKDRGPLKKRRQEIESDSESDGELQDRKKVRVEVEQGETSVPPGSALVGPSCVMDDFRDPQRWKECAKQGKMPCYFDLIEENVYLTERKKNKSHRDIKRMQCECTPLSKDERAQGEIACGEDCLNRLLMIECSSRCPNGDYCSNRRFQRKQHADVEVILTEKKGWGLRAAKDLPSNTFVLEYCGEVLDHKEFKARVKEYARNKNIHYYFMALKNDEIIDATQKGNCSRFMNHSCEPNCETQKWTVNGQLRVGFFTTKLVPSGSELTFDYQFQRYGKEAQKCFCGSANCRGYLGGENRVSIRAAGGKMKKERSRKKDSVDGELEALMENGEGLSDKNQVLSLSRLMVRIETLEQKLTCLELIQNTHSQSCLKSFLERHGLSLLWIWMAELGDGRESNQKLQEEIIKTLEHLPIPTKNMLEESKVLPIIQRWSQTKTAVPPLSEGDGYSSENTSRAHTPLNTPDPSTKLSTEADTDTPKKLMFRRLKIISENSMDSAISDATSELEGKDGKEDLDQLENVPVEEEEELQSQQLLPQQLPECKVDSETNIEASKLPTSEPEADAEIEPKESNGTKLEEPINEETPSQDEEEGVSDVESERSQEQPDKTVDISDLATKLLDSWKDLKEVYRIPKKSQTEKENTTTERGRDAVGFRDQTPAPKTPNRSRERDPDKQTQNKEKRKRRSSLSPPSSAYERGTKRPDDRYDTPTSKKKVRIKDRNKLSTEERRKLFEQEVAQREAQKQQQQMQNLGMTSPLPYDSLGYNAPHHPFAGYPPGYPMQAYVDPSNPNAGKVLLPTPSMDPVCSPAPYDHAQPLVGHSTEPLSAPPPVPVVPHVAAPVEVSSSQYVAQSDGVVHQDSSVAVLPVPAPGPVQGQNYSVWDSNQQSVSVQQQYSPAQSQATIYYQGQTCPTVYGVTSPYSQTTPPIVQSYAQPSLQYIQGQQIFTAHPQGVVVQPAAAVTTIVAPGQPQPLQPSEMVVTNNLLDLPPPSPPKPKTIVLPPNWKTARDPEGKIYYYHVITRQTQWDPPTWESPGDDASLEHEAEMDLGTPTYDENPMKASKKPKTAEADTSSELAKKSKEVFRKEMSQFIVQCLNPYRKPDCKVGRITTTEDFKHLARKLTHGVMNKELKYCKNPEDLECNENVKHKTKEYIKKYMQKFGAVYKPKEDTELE
UniProt P37231: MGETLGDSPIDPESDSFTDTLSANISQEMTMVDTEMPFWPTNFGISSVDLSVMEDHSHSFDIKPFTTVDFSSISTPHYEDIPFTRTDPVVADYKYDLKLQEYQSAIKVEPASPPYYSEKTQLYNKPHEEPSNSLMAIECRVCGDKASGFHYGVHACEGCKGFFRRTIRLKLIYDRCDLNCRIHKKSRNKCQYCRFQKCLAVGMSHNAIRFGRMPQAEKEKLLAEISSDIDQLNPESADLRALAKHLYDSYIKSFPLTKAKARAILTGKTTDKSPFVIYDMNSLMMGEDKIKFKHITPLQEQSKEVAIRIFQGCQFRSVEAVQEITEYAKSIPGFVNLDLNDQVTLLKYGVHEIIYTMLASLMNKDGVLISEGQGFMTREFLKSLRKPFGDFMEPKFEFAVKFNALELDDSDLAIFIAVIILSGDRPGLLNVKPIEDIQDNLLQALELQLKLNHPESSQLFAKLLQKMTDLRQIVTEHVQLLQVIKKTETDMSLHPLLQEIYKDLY

[2] = target: Flag-SETD2 (in LX2 cells) (UniProt Q9BYW2); test: co-IP; anti-Flag magnetic beads; LX2 cells transfected with Flag-PPARγ, Flag-SETD2 or Flag-menin, basal conditions; blot for menin, SETD2, PPARγ, Flag
[3] = target: T1, Flag-menin (in LX2 cells); test: as above
[4] = target: Flag-PPARγ (in LX2 cells) (UniProt P37231); test: as above

Molecule: PPARγ (endogenous in LX2 cells) (from UniProt P37231 1-505)
- binding [1]: no binding (condition: TGF-β (10 ng/ml) for 48 h)
- binding [2]: binds
- binding [3]: binds

B1: menin (endogenous in LX2 cells) (protein, UniProt O00255 1-610)
chain: MGLKAAQKTLFPLRSIDDVVRLFAAELGREEPDLVLLSLVLGFVEHFLAVNRVIPTNVPELTFQPSPAPDPPGGLTYFPVADLSIIAALYARFTAQIRGAVDLSLYPREGGVSSRELVKKVSDVIWNSLSRSYFKDRAHIQSLFSFITGTKLDSSGVAFAVVGACQALGLRDVHLALSEDHAWVVFGPNGEQTAEVTWHGKGNEDRRGQTVNAGVAERSWLYLKGSYMRCDRKMEVAFMVCAINPSIDLHTDSLELLQLQQKLLWLLYDLGHLERYPMALGNLADLEELEPTPGRPDPLTLYHKGIASAKTYYRDEHIYPYMYLAGYHCRNRNVREALQAWADTATVIQDYNYCREDEEIYKEFFEVANDVIPNLLKEAASLLEAGEERPGEQSQGTQSQGSALQDPECFAHLLRFYDGICKWEEGSPTPVLHVGWATFLVQSLGRFEGQVRQKVRIVSREAEAAEAEEPWGEEAREGRRRGPRRESKPEEPPPPKKPALDKGLGTGQGAVSGPPRKPPGTVAGTARGPEGGSTAQVPAPTASPPPEGPVLTFQSEKMKGMKELLVATKINSSAIKLQLTAQSQVQMKKQKVSTPSDYTLSFLKRQRKGL
- binding [4]: binds
- binding [2]: binds
